These are yes or no findings as the source states them, for the method shown. In cells and extracts the contact can be indirect. Some entries that bind do so weakly or less than the wild type.

Amino acid sequences for entries named in this document (tags omitted). A change or cut given only in a name is not applied to a line headed by its entry.
UniProt Q92576: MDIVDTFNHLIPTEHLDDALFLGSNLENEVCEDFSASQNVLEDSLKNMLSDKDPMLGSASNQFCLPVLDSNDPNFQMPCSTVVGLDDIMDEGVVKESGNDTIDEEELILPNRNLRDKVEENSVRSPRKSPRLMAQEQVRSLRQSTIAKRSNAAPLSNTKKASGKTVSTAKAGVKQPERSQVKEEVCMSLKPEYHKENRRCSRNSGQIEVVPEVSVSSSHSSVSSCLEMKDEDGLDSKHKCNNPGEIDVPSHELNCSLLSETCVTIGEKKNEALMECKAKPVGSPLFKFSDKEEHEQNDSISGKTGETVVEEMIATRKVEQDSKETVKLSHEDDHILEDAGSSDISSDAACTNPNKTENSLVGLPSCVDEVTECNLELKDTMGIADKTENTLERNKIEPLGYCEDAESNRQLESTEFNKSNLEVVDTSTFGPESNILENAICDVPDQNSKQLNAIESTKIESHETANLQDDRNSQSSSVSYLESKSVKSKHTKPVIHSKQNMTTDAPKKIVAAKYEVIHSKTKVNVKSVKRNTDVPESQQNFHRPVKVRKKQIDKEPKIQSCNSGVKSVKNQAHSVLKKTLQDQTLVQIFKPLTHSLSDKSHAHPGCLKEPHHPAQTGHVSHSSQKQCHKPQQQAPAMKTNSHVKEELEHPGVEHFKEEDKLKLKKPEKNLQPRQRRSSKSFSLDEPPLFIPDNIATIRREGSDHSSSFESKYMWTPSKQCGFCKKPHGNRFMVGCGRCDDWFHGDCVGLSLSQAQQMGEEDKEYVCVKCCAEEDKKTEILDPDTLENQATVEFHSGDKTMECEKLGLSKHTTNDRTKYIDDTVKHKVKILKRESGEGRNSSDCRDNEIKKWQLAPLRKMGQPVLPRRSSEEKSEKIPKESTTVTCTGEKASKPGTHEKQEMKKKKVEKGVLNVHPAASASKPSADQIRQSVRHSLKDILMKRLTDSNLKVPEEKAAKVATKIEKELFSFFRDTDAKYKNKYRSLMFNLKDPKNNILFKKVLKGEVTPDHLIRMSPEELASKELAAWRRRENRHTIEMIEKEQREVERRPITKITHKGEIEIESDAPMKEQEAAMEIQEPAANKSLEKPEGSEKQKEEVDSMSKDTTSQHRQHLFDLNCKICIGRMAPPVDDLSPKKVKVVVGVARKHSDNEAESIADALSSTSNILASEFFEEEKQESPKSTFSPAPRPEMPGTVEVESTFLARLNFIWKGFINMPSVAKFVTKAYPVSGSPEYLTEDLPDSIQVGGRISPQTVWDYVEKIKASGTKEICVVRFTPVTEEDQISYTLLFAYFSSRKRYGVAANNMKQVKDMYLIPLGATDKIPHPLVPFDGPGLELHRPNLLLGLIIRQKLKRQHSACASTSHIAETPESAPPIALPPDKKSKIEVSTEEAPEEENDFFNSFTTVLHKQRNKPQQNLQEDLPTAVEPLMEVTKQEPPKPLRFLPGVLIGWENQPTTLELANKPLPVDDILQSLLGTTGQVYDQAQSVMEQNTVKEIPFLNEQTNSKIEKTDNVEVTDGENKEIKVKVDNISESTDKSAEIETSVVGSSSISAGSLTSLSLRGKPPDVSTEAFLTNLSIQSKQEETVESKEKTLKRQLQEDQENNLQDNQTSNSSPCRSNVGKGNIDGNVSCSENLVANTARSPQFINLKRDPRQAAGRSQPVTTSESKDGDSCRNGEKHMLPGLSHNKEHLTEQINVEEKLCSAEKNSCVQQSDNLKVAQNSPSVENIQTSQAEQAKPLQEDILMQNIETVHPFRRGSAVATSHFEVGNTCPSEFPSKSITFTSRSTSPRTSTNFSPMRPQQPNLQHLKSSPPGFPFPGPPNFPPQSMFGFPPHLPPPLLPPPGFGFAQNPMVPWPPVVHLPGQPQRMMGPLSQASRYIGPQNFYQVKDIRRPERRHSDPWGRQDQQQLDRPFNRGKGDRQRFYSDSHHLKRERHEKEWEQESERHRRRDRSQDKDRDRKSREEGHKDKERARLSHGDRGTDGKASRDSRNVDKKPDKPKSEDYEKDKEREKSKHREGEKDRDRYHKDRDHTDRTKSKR
UniProt Q9Y5B9: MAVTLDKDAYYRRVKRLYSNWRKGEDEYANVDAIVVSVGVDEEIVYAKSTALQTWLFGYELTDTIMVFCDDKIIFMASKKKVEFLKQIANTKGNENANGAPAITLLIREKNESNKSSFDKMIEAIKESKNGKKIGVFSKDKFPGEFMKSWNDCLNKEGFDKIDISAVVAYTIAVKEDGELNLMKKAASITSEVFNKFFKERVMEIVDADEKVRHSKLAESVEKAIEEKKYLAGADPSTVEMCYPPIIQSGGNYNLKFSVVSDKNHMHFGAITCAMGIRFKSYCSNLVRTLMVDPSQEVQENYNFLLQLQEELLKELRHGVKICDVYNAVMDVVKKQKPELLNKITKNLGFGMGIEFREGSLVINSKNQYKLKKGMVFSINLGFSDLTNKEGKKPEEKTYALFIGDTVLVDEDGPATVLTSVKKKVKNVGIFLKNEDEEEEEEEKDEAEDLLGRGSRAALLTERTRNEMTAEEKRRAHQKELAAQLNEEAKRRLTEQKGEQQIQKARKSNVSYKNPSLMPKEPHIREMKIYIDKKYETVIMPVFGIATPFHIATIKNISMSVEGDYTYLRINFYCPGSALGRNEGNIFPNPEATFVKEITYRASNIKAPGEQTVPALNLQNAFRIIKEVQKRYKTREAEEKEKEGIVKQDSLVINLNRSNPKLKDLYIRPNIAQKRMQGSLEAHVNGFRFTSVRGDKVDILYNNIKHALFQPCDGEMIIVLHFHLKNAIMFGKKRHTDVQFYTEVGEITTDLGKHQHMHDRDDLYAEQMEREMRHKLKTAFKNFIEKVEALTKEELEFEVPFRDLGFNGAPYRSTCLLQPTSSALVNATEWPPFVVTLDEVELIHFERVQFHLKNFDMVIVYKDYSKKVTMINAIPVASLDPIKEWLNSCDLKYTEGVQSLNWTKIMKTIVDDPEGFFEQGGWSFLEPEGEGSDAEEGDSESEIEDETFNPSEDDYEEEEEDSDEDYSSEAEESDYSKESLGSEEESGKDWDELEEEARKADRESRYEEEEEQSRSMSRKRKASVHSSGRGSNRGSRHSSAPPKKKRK

The target in the assay is PHF3-GFP (endogenous PHF3 tagged with GFP) (human (endogenous in HEK293T)) (UniProt Q92576). Briefly: co-IP; endogenously tagged PHF3-GFP precipitated from HEK293T lysate with rabbit anti-GFP and protein G Dynabeads; partners detected by Western blot. For orientation: In western blotting, separated proteins are transferred to a membrane and probed.

Turning to “FACT complex (SPT16 and SSRP1) (from UniProt Q9Y5B9 1-1047; Q08945 1-709)”, the binding entry is “binds”.

The record behind these values is publication PMC8526623, “PHF3 regulates neuronal gene expression through the Pol II CTD reader domain SPOC” (Nature Communications, 2021).
